From patent US10442791B2, “DNA-PK inhibitors” (Vertex Pharmaceuticals Incorporated, priority 2012, dated 2019)
Some entries share one result that the patent states for a list of compounds. For at least one compound, name, drawing or mass did not settle the structure.

Protein sequences, listed by entry. Tags and fused reporters are not part of them.
UniProt P78527, whole entry: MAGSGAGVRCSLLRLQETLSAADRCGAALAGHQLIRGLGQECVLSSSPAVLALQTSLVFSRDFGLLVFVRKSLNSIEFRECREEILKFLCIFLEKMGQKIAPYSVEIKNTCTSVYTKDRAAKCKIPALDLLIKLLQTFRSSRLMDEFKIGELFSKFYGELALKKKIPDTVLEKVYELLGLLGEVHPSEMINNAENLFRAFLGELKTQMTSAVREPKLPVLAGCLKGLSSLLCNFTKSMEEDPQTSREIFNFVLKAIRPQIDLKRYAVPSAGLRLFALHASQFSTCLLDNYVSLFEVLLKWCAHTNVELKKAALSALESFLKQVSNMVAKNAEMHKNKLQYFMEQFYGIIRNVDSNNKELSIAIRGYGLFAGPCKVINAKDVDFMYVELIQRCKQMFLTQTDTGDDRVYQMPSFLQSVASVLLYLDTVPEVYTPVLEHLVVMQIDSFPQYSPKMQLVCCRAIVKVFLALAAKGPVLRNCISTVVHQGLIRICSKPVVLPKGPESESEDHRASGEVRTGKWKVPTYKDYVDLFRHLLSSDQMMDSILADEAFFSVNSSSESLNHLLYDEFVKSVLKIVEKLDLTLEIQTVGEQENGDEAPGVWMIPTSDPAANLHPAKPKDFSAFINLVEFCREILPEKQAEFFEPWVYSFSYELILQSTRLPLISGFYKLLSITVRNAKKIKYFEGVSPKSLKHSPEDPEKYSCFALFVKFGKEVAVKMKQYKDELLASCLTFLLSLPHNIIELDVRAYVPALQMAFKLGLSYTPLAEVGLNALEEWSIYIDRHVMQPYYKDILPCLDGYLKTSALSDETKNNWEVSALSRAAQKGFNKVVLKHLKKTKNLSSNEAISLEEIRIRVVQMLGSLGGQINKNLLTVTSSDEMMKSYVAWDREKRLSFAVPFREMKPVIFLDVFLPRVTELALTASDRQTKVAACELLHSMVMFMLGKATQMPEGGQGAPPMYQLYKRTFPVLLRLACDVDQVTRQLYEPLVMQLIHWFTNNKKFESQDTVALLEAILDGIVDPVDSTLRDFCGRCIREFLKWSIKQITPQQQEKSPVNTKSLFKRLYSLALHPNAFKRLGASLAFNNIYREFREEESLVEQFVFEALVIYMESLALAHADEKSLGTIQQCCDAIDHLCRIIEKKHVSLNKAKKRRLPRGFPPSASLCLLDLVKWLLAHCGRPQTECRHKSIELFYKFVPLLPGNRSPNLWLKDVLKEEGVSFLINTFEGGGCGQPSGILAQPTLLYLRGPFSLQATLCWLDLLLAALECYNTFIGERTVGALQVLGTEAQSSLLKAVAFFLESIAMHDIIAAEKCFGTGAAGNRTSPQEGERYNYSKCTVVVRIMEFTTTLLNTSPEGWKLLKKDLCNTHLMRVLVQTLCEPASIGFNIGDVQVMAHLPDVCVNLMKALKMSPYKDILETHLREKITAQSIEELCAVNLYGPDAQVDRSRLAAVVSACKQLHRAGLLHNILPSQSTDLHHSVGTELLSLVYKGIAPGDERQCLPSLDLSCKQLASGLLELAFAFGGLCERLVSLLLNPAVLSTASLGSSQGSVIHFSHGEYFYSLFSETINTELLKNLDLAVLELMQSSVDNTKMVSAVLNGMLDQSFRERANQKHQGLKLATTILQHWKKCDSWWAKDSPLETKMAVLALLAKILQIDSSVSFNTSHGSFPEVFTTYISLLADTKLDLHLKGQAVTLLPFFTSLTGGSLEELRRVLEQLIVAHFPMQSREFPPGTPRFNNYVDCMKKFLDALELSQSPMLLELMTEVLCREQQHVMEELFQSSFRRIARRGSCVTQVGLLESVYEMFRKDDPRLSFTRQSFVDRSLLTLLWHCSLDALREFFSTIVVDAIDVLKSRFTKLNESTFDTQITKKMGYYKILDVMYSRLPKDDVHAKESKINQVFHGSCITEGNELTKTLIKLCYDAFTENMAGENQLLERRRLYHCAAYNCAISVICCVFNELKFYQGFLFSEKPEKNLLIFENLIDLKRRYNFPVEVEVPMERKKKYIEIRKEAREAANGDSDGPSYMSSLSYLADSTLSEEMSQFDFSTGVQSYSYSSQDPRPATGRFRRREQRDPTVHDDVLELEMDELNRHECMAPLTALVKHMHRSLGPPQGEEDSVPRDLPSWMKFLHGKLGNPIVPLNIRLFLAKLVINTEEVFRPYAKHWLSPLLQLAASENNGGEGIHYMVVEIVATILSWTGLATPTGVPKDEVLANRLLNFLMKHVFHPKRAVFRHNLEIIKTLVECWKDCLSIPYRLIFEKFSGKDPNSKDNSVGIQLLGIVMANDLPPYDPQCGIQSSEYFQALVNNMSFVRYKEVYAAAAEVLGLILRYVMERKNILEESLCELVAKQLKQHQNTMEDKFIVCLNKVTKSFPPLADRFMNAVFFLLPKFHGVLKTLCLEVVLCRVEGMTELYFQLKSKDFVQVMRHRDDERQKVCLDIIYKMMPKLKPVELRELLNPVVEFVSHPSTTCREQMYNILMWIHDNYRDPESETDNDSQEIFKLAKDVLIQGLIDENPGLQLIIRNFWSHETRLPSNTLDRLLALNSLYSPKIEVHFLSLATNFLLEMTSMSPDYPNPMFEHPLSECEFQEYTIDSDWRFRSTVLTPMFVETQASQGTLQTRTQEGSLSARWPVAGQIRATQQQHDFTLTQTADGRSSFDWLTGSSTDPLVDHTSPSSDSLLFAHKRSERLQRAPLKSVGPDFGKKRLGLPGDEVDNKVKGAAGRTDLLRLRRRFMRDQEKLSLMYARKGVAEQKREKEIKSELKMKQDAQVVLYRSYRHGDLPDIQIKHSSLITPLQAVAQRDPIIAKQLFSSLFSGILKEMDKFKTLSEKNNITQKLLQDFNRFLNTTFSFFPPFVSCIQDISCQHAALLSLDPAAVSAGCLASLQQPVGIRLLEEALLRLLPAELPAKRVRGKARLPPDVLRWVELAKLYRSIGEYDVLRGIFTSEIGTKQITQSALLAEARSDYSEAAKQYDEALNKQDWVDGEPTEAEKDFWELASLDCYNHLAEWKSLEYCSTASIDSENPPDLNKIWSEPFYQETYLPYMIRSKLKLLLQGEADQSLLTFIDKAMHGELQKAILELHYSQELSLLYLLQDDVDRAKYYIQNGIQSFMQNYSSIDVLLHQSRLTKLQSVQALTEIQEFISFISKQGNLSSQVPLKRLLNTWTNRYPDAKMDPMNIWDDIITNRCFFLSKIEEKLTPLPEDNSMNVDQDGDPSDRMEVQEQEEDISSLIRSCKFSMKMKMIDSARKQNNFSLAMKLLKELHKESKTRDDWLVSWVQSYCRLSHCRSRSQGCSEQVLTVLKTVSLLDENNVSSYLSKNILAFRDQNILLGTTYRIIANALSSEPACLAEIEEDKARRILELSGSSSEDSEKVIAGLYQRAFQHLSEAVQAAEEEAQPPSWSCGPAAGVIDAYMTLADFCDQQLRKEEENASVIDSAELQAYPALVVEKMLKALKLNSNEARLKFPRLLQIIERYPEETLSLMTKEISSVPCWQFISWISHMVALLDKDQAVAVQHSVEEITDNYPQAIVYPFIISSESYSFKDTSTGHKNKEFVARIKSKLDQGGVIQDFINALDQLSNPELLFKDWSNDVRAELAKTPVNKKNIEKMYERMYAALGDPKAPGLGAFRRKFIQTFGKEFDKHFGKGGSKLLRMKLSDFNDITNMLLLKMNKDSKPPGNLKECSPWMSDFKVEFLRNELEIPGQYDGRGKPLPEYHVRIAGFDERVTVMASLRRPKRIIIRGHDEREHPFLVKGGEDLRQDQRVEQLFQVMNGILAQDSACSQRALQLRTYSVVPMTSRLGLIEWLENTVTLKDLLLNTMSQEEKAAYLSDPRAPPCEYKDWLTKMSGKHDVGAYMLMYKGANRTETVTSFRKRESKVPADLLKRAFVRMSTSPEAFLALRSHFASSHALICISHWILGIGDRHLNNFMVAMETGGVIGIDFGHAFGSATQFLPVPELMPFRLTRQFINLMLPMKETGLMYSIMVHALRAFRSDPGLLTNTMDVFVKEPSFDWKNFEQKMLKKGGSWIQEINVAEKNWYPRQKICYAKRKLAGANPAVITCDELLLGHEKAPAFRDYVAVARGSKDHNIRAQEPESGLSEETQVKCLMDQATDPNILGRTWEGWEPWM

Each molecule was assayed against DNA-PK (Homo sapiens, UniProt P78527) (assay: DNA-PK inhibition assay (radiometric 33P-ATP kinase assay)). Details: 100 μM ATP; competitive tight-binding fit.
Type: biochemical

Compound | Ki
CNC(=O)c1ccnc2c([C@H](C)CNc3cc(-c4ccc(C(C)C)nc4)ncn3)cccc12 [Compound 848] | ≤ 300 nM
CNC(=O)c1ccnc2c([C@H](C)CNc3cc(-c4cnc(N)c(C)c4)ncn3)cccc12 [Compound 948] | ≤ 300 nM
CNC(=O)c1ccnc2c([C@H](C)CNc3cc(-c4ccc(NCCNCCO)nc4)ncn3)cccc12 [Compound 707] | ≤ 300 nM
CNC(=O)c1c(F)cnc2c([C@H](C)CNc3cc(-c4cncc(C)c4)ncn3)cccc12 [Compound 772] | ≤ 300 nM
CNC(=O)c1ccc([C@H](C)CNc2cc(-c3ccc4ncccc4c3)ncn2)c(OC)c1 [Compound 454] | ≤ 300 nM
Cc1ccc(-c2cc(NCC(C)c3ccccc3OCCn3ccnc3)ncn2)cn1 (stereo not shown) [Compound 192] | ≤ 300 nM
CNC(=O)c1ccnc2c([C@H](C)CNc3cc(-c4cnc(C)c(F)c4)ncn3)ccc(F)c12 [Compound 974] | ≤ 300 nM
CCOc1cc(-c2cc(NC[C@@H](C)c3cccc4c(C(=O)NC)ccnc34)ncn2)cnc1C [Compound 875] | ≤ 300 nM
CNC(=O)c1c(F)cnc2c([C@H](C)CNc3cc(-c4cnc5c(c4)OCCO5)ncn3)cccc12 [Compound 937] | ≤ 300 nM
COC(=O)c1ccnc2c(C(C)CNc3cc(-c4ccc(C)nc4)ncn3)cccc12 (stereo not shown) [Compound 488] | ≤ 300 nM
COc1ccccc1[C@H](C)CNc1cc(-c2ccc(N(C)C3CCN(C)CC3)nc2)ncn1 [Compound 223] | ≤ 300 nM
CNC(=O)c1ccnc2c([C@H](C)CNc3cc(-c4ccc(N[C@@H]5COC[C@H]5O)nc4)ncn3)cccc12 [Compound 726] | ≤ 300 nM
COc1ccc2nccc(C(C)CNc3cc(-c4ccc(C)nc4)ncn3)c2n1 (stereo not shown) [Compound 440] | ≤ 300 nM
CCN(CC)c1cc(-c2cc(NC[C@@H](C)c3cccc4c(C(=O)NC)ccnc34)ncn2)ccn1 [Compound 892] | ≤ 300 nM
CNC(=O)c1c(F)cnc2c([C@H](C)CNc3cc(-c4cnc(C5CCC5)nc4)ncn3)cccc12 [Compound 856] | ≤ 300 nM
C#Cc1ccc(C(C)CNc2cc(-c3ccc(C)nc3)ncn2)c(OC)c1 (stereo not shown) [Compound 433] | ≤ 300 nM
Cc1ccc2cc(-c3cc(NC[C@@H](C)c4ccnc5c4OCCO5)ncn3)ccc2n1 [Compound 555] | ≤ 300 nM
CNC(=O)c1c(F)cnc2c([C@H](C)CNc3cc(-c4ccnc(C5CC5)c4)ncn3)cccc12 [Compound 917] | ≤ 300 nM
CNC(=O)c1ccnc2c([C@H](C)CNc3cc(-c4cnc(NCCNC(C)=O)nc4)ncn3)cccc12 [Compound 1051] | ≤ 300 nM
COc1ccccc1CCNc1cc(-c2cnc(N3CCN(C)CC3)nc2)ncn1 [Compound 21] | ≤ 300 nM
C[C@H](CNc1cc(-c2ccc(S(C)(=O)=O)nc2)ncn1)c1ccnc2c1OCCO2 [Compound 531] | ≤ 300 nM
CNC(=O)c1ccnc2c([C@H](C)CNc3cc(-c4ccc([S+](C)[O-])cc4)ncn3)cccc12 (stereo partly shown) [Compound 677] | ≤ 300 nM
CNC(=O)c1ccnc2c([C@H](C)CNc3cc(-c4ccc(N(C)C5CCN(C)CC5)nc4)ncn3)cccc12 [Compound 634] | ≤ 300 nM
COc1ccccc1CCNc1cc(-c2cnc3c(ccn3CC3CC3)c2)ncn1 [Compound 40] | ≤ 300 nM
CNC(=O)c1ccnc2c([C@H](C)CNc3cc(-c4ccc(NC5CCN(C)CC5)nc4)ncn3)cccc12 [Compound 635] | ≤ 300 nM

Compound | Ki
CNC(=O)c1ccnc2c([C@H](C)CNc3cc(-c4ccnc(N5CCC(O)CC5)c4)ncn3)cccc12 [Compound 819] | ≤ 300 nM
CNC(=O)c1ccnc2c([C@H](C)CNc3cc(-c4cnc(NC5CCN(CC(F)(F)F)CC5)nc4)ncn3)cccc12 [Compound 1080] | ≤ 300 nM
CNC(=O)c1ccnc2c([C@H](C)CNc3cc(-c4cnc5c(cnn5C(C)(C)C)c4)ncn3)cccc12 [Compound 619] | ≤ 300 nM
CNC(=O)c1ccnc2c([C@H](C)CNc3cc(-c4ccnc(OC)c4)ncn3)cccc12 [Compound 869] | ≤ 300 nM
CNC(=O)c1ccnc2c([C@H](C)CNc3cc(-c4c[nH]c(C)n4)ncn3)cccc12 [Compound 1092] | < 30 nM
CNC(=O)c1ccnc2c([C@H](C)CNc3cc(-c4cnc(OC(C)C)nc4)ncn3)ccc(F)c12 [Compound 983] | ≤ 300 nM
CNC(=O)c1ccc([C@H](C)CNc2cc(-c3cnc4c(ccn4CC4CC4)c3)ncn2)c(OC)c1 [Compound 253] | ≤ 300 nM
CCNc1ccc(-c2cc(NC[C@@H](C)c3ccc(C(=O)NC)cc3OC)ncn2)cn1 [Compound 360] | ≤ 300 nM
COc1ccccc1CCNc1cc(-c2cnc3[nH]ccc3c2)ncn1 [Compound 8] | ≤ 300 nM
COc1ccccc1[C@H](C)CNc1cc(-c2cnc3c(cnn3CC3CC3)c2)ncn1 [Compound 140] | ≤ 300 nM
CCOc1ccccc1[C@H](C)CNc1cc(-c2ccc(N3CCN(C)CC3)nc2)ncn1 [Compound 152] | ≤ 300 nM
C[C@H](CNc1cc(-c2ccc3cnccc3c2)ncn1)c1ccnc2c1OCCO2 [Compound 542] | ≤ 300 nM
CNC(=O)c1ccnc2c([C@H](C)CNc3cc(-c4ccc5c(c4)CNCC5)ncn3)cccc12 [Compound 801] | ≤ 300 nM
CNC(=O)c1ccnc2c([C@H](C)CNc3cc(-c4cnc5c(c4)COC5(C)C)ncn3)cccc12 [Compound 986] | ≤ 300 nM
CNC(=O)c1ccnc2c([C@H](C)CNc3cc(-c4cnc(N5CCN(CC(F)F)CC5)nc4)ncn3)cccc12 [Compound 757] | ≤ 300 nM
CC(CNc1cc(-c2cnc3c(cnn3CCO)c2)ncn1)c1cncc2c1OCC2 (stereo not shown) [Compound 419] | ≤ 300 nM
COc1ccccc1[C@H](C)CNc1cc(-c2cnc3c(cnn3CCO)c2)ncn1 [Compound 127] | ≤ 300 nM
CNC(=O)c1ccnc2c([C@H](C)CNc3cc(-c4ccc(C(=O)N5CCN(C)CC5)cc4)ncn3)cccc12 [Compound 770] | ≤ 300 nM
Cc1ccc(-c2cc(NC[C@@H](C)c3ccnc4cc(C)oc34)ncn2)cn1 [Compound 563] | ≤ 300 nM
COc1ccccc1CCNc1cc(-c2cnc3c(ccn3C)c2)ncn1 [Compound 34] | ≤ 300 nM
CNC(=O)c1ccnc2c([C@H](C)CNc3cc(-c4cnc(C5CCC5)nc4)ncn3)ccc(F)c12 [Compound 851] | ≤ 300 nM
Cc1ccc(-c2cc(NCC(C)c3ccnc4c3OCCO4)ncn2)cn1 (stereo not shown) [Compound 424] | ≤ 300 nM
CNC(=O)c1ccnc2c([C@H](C)CNc3cc(-c4ccc(C(F)(F)F)nc4)ncn3)cccc12 [Compound 649] | ≤ 300 nM
COc1ccccc1[C@H](C)CNc1cc(-c2cnc(C)nc2)ncn1 [Compound 138] | ≤ 300 nM
CNC(=O)c1ccc([C@H](C)CNc2cc(-c3ccc(NCCCO)nc3)ncn2)c(OC)c1 [Compound 355] | ≤ 300 nM

Compound | Ki
CNC(=O)c1ccnc2c([C@H](C)CNc3cc(-c4cnc5c(c4)COC5)ncn3)ccc(F)c12 [Compound 967] | ≤ 300 nM
CNC(=O)c1ccnc2c([C@H](C)CNc3cc(-c4ccc5c(c4)OCO5)ncn3)cccc12 [Compound 610] | ≤ 300 nM
CNC(=O)c1ccnc2c([C@H](C)CNc3cc(-c4cnc(NCC(=O)N(C)C)nc4)ncn3)cccc12 [Compound 1077] | ≤ 300 nM
C[C@H](CNc1cc(-c2ccc(C(=O)NCCC#N)cc2)ncn1)c1ccnc2c1OCC2 [Compound 432] | ≤ 300 nM
COc1ncc(C)cc1C(C)CNc1cc(-c2ccc(C)nc2)ncn1 (stereo not shown) [Compound 455] | ≤ 300 nM
CNC(=O)c1c(F)cnc2c([C@H](C)CNc3cc(-c4ccc(NC5CC5)nc4)ncn3)cccc12 [Compound 921] | ≤ 300 nM
CNC(=O)c1c(F)cnc2c([C@H](C)CNc3cc(-c4cnc(OC5CCC5)nc4)ncn3)cccc12 [Compound 981] | ≤ 300 nM
Cc1ncc(-c2cc(NC[C@@H](C)c3ccnc4c3OCCC4)ncn2)cn1 [Compound 540] | ≤ 300 nM
CNCCN(C)c1ccc(-c2cc(NC[C@@H](C)c3ccc(C(=O)NC)cc3OC)ncn2)cn1 [Compound 368] | ≤ 300 nM
CNC(=O)c1ccnc2c([C@H](C)CNc3cc(-c4cnc(SC)nc4)ncn3)cccc12 [Compound 800] | ≤ 300 nM
COc1ccccc1[C@H](C)CNc1cc(-c2cnc3[nH]ncc3c2)ncn1 [Compound 150] | ≤ 300 nM
CNC(=O)c1ccnc2c([C@H](C)CNc3cc(-c4ccc(N)nc4)ncn3)cccc12 [Compound 586] | ≤ 300 nM
[2H]C([2H])([2H])NC(=O)c1ccnc2c([C@H](C)CNc3cc(-c4ccc(C)nc4)ncn3)cccc12 [Compound 549] | ≤ 300 nM
CNC(=O)c1c(F)cnc2c([C@H](C)CNc3cc(-c4ccnc(C5CCC5)c4)ncn3)cccc12 [Compound 919] | ≤ 300 nM
Cc1ccc(-c2cc(NCC(C)c3cccc4nccnc34)ncn2)cn1 (stereo not shown) [Compound 332] | ≤ 300 nM
COc1cc2c(cc1C(C)CNc1cc(-c3ccc(C)nc3)ncn1)CNC2=O (stereo not shown) [Compound 334] | ≤ 300 nM
CNC(=O)c1ccc(C(C)CNc2cc(-c3ccc4c(cnn4CCO)c3)ncn2)c(OC)c1 (stereo not shown) [Compound 246] | ≤ 300 nM
CNC(=O)c1ccnc2c([C@H](C)CNc3cc(-c4ccc(C(O)C(C)C)nc4)ncn3)ccc(F)c12 (stereo partly shown) [Compound 926] | ≤ 300 nM
CNC(=O)c1ccc(C(C)CNc2cc(-c3ccc(OCC4CCC4)nc3)ncn2)c(OC)c1 (stereo not shown) [Compound 321] | ≤ 300 nM
CNC(=O)c1ccc([C@H](C)CNc2cc(-c3ccc(Nc4nc[nH]n4)nc3)ncn2)c(OC)c1 [Compound 354] | ≤ 300 nM
CNC(=O)c1ccnc2c([C@H](C)CNc3cc(-c4cnc(OC)c(OC)c4)ncn3)ccc(F)c12 [Compound 906] | ≤ 300 nM
CC(CNc1cc(-c2cnc3c(cnn3C3CCN(C)CC3)c2)ncn1)c1ccccc1OC1COC1 (stereo not shown) [Compound 216] | ≤ 300 nM
COc1ncc(-c2cc(NC[C@@H](C)c3ccnc4c3OCCO4)ncn2)cc1N [Compound 519] | ≤ 300 nM
CNC(=O)c1ccnc2c([C@H](C)CNc3cc(-c4ccc(C)nc4)ncn3)cccc12 [Compound 476] | ≤ 300 nM

Same assay, conditions: 100 μM ATP; competitive tight-binding fit; listed as compound 1013

Compound | Ki
CNC(=O)c1ccnc2c([C@H](C)CNc3cc(-c4cnc5c(c4)C(C)OC5)ncn3)cccc12 (single isomer, unassigned) [Compound 1013] | ≤ 300 nM

Same assay, conditions: 100 μM ATP; competitive tight-binding fit; listed as compound 1039

Compound | Ki
CNC(=O)c1ccnc2c([C@H](C)CNc3cc(-c4ccnc(C(C)OC)c4)ncn3)cccc12 (single isomer, unassigned) [Compound 1039] | ≤ 300 nM
